The series deals with gamma secretase. Nature of the series: Aβ production from C99GVP and mutant or chimeric substrates in transfected HEK cells (ELISA, IP/Western blot). The series is classed as cell-based, Human. The settings on record: conditioned media. From the text:
Plasmid Construction of JMD Chimeric Substrates: A pcDNA3.1-C99 plasmid similar to the previously described SPA4CT-LE construct (Dyrks, et al., FEBS Lett., 1992; 309: 20-24) was generated by standard PCR techniques. The APP signal peptide was fused to the N-terminus of the C99 fragment via a dipeptide leucine-glutamic acid (LE) linker. The strategy used to generate the pcDNA3.1-C99GVP construct was similar to a previously described method (Karlstrom, H., et al., J. Biol. Chem., 2002; 277: 6763-6766). (See, generally, FIG. 3). Briefly, an AscI site was introduced immediately 3′ of the nucleotides encoding the triple-lysine (K) membrane anchor of C99, where the GVP coding sequence was subsequently inserted in frame (to the C-terminal side of the lysine membrane anchor sequence of C99). […] All three chimeras were constructed by using a two-stage PCR method with two pairs of overlapping primers (for list of primers, see Table I). These chimeric substrates were characterized to assess activity as gamma secretase substrates and subsequent production and secretion of Aβ and AICD (FIGS. 6-7). […] The C99GVP-SLSS quadruple JMD chimera was also constructed with the same PCR method. Point mutations within the luminal juxtamembrane domain (i.e., C99GVP-G25S, S26L, N27S and K28S; FIGS. 2 and 9A-D) were generated using QuikChange (Stratagene) site-directed mutagenesis kit according to the manufacturer's instructions. All cDNAs were verified by sequencing. […]
Cell Culture and Transient Transfection: Human embryonic kidney 293 (HEK 293) cells (ATCC) were grown in Dulbecco's Modified Eagle Medium with High Glucose (DMEM, obtained from Gibco/Invitrogen, Cat #11960) supplemented with 10% fetal bovine serum (Hyclone, SV 30014.03) and 50 units/ml penicillin and streptomycin (37° C., 5% CO2). […] At the time of seeding, viability of cells was greater than 95% as determined using a Vi-Cell Analyzer (Beckman-Coulter). Confluence of cells on plates was kept at greater than 95% during all phases of the experiment as determined with a standard tissue culture inverted microscope. […]
A general note: An ELISA detects its analyte on a solid surface through an enzyme-linked reagent.

In the case of “C99GVP: 99 amino acid C-terminal fragment of APP with Gal4-VP16 domain inserted in-frame (SEQ ID NO:47)”, the “Aβ42 fraction of the total Aβ” value is reported as 15.7±2.5%. Besides, under “ELISA, FIG. 5D”, the “secreted Aβ40” value worked out at 210.8 ± 19.2 µM and the “secreted Aβ42” value amounted to 39.1 ± 6.4 µM.

(Values after patent US20110306071A1, “Compositions and Methods for Identifying Substrate Specificity of Inhibitors of Gamma Secretase” (ELAN PHARMACEUTICALS, INC., priority 2007, published 2011).)
